PubChem BioAssay AID686937, Drosophila RNAi Screening Center, 2013

Purpose: 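Genes whose loss weakens secretory pathway function in fly cells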 (primary screen)
System: Drosophila S2 cells expressing secreted horseradish peroxidase
Reagent: long dsRNA against Drosophila genes
Duration: about 5.5 days (5 days dsRNA, then 12 h reporter induction)
Conditions: reporter expression induced after 5 days of dsRNA, read 12 h later; inducer not stated
Read-out: 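After 5 days of dsRNA and 12 h of reporter induction, medium peroxidase read by chemiluminescence and scored as per-plate z-score; higher values mean more reporter released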
Direction: z-score: higher = more reporter secreted into medium
The deposit covers about 23,000 reagents; this is a random part of those that have a named target and a result. 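Reduced-secretion tags in replicate 1 do not always agree with the z-scores; no criterion for assigning the tags was given.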 A plus sign joins genes that one reagent is predicted to hit. No sequences are given here. The record does not give: the amount of reagent.

| target gene | DRSC id | z-score, replicate 1 | z-score, replicate 2 | z-score, replicate 3 | z-score, replicate 4 | phenotype, replicate 1 |
| --- | --- | --- | --- | --- | --- | --- |
| cher | DRSC16924 | 0.35 | 0.46 | – | – | – |
| Psf3 | DRSC18216 | 0.44 | 0.45 | – | – | – |
| Psf3 | DRSC21487 | 0.26 | 0.36 | – | – | – |
| Tmtc3 | DRSC04444 | 0.44 | 0.37 | – | – | – |
| CheA75a | DRSC10807 | 0.39 | 0.35 | – | – | – |
| PpD3 | DRSC16796 | 0.23 | 0.33 | – | – | – |
| Tcs3 | DRSC10461 | 0.21 | 0.16 | – | – | – |
| CG4594 | DRSC02762 | 0.06 | 0.3 | – | – | – |
| Nipped-A | DRSC04882 | 0.57 | 0.25 | 0.1 | 0.09 | – |
| Nipped-A | DRSC04883 | -1.06 | -0.92 | – | – | – |
| Nipped-A | DRSC04884 | -0.53 | -1.12 | – | – | – |
| Nipped-A | DRSC07738 | -1.08 | -0.48 | – | – | – |
| Nipped-A | DRSC22386 | 0.75 | 0.71 | – | – | – |
| CR41501 | DRSC07785 | -0.08 | 0.23 | – | – | – |
| MED23 + CG3700 | DRSC04406 | 0.14 | 0.17 | – | – | – |
| MED23 + CG3700 | DRSC04407 | 0.29 | 0.46 | – | – | – |
| Rpn9 | DRSC16840 | 0.05 | 0.49 | – | – | – |
| PGAP2 | DRSC00632 | 0.11 | 0.02 | – | – | – |
| smg | DRSC11397 | 0.03 | 0.09 | – | – | – |
| CG2082 | DRSC12125 | 0.11 | 0.36 | – | – | – |
| salt | DRSC15427 | -0.17 | 0.5 | – | – | – |
| CG15695 | DRSC15117 | -0.05 | -0.38 | – | – | – |
| Snap24 | DRSC16864 | 0.3 | 0.52 | – | – | – |
| CG4607 | DRSC18375 | 0.19 | 0.5 | – | – | – |
| CG18469 | DRSC21838 | 0.29 | 0.36 | – | – | – |
| CG12118 | DRSC17813 | 0.36 | 0.28 | – | – | – |
| MstProx | DRSC12458 | 0.33 | 0.42 | – | – | – |
| MstProx | DRSC12601 | 0.25 | 0.62 | – | – | – |
| Ypel | DRSC17996 | 0.48 | 0.41 | – | – | – |
| CG4168 | DRSC01446 | -0.34 | 0.26 | – | – | – |
| CG4168 | DRSC01447 | 0.31 | 0.19 | – | – | – |
| CG4168 | DRSC01933 | 0.35 | 0.23 | – | – | – |
| CG4168 | DRSC21319 | 0.98 | 1.14 | – | – | – |
| CG4168 | DRSC22789 | 0.26 | 0.78 | – | – | – |
| Gycbeta100B | DRSC14039 | 0.53 | 0.41 | – | – | – |
| Gycbeta100B | DRSC14040 | 0.73 | 0.85 | – | – | – |
| Gycbeta100B | DRSC16691 | 0.34 | 0.21 | – | – | – |
| mmm | DRSC10208 | 0.47 | 0.4 | – | – | – |
| Ciao1 | DRSC06170 | 0.48 | 0.51 | – | – | – |
| Gcn2 | DRSC16678 | 0.27 | 0.08 | – | – | – |
| CG6144 | DRSC02934 | 0.58 | 0.49 | – | – | – |
| p130CAS | DRSC07862 | 0.94 | 0.4 | – | – | – |
| p130CAS | DRSC08257 | -3.82 | -2.41 | – | – | reduced secretion |
| Acsl | DRSC07252 | 0.54 | 0.5 | – | – | – |
| Tsp42Eb + CG30160 | DRSC04961 | 0.17 | – | – | – | – |
| Tsp42Eb + CG30160 | DRSC06791 | 0.2 | 0.34 | – | – | – |
| swm | DRSC02012 | 0.25 | 0.21 | 0.24 | 0.39 | – |
| swm | DRSC21831 | -2.05 | -0.49 | – | – | reduced secretion |
| shams | DRSC16590 | 0.09 | 0.2 | – | – | – |
| sc | DRSC18830 | 0.41 | 0.37 | – | – | – |
| ptc | DRSC05117 | -0.01 | – | – | – | – |
| ptc | DRSC07669 | 0.4 | 0.3 | – | – | – |
| Gr2a | DRSC18603 | 0.39 | 0.45 | – | – | – |
| CG10466 | DRSC02060 | -0.04 | -0.03 | – | – | – |
| PGRP-SB2 | DRSC11092 | 0.37 | 0.3 | – | – | – |
| dgt4 | DRSC18659 | 0.26 | 0.37 | – | – | – |

Entries listed so far whose target name begins with N or n (5):
| target gene | DRSC id | z-score, replicate 1 | z-score, replicate 2 | z-score, replicate 3 | z-score, replicate 4 | phenotype, replicate 1 |
| --- | --- | --- | --- | --- | --- | --- |
| Nipped-A | DRSC04882 | 0.57 | 0.25 | 0.1 | 0.09 | – |
| Nipped-A | DRSC04883 | -1.06 | -0.92 | – | – | – |
| Nipped-A | DRSC04884 | -0.53 | -1.12 | – | – | – |
| Nipped-A | DRSC07738 | -1.08 | -0.48 | – | – | – |
| Nipped-A | DRSC22386 | 0.75 | 0.71 | – | – | – |
